# The campaign covered roughly 31,000 sequences. About 1,400 (4.5%) were called active.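 The calls were made as follows: active = median seed-adjusted z-score above 1 or below -1; inactive = the rest.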 The list shows a part of the results.
# Test: Novel Modifiers of Survival Motor Neuron (SMN) Protein: Gene Identification via Genome-wide siRNA Screen;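 also: luminescence tracks full-length SMN protein made from the SMN2 reporter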
# Conditions: HEK293T SMN2-luciferase reporter, siRNA knockdown, 72 h; actives lie on both sides
# Outline: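 Luciferase signal, proportional to full-length SMN made from an SMN2 cDNA reporter in stable HEK293T cells, was read 72 h after siRNA reverse transfection. Values were expressed as MAD scores after non-targeting-control normalization and log10 conversion; seed analysis flagged off-targets.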
row,Sequence,median seed-adjusted z-score
1,GAGUUAAGGAGGUAGAUGATT against SNX5,inactive: -0.141
2,CAACGACAGGAAUGACAAUTT against ARHGEF7,inactive: 0.185
3,CAGAAUAUCUGGAACAUCATT against GSTK1,inactive: 0.234
4,GGAUAGUAGUGGACUCAGATT against RBM26,inactive: -0.967
5,AUACCAACGAGUCAACAAATT against TMED10,inactive: 0.523
6,CAGACAAGAUUGAACGGAUTT against LRP1,inactive: -0.781
7,GCAUAUUGCUUGCUAUUAATT against TPST2,inactive: -0.682
8,CUCACAUCCUAGACCAGUATT against CBS,inactive: -0.0696
9,GGAUACAAUCUUUGAUAUATT against ZNF583,inactive: -0.225
10,GCCUUGCAGGAAAUUCGAATT against LATS1,inactive: 0
11,CCAAGAUAUUGUAUACAAATT against BMI1,inactive: 0
12,CGAGACCUUUGACCCUCGATT against DBP,inactive: -0.115
13,GUCAUAACCUCACCUUAUATT against TUBE1,inactive: -0.00933
14,CAGGAUCAAUCGAAAGAUUTT against IRAK2,inactive: -0.06
15,GGCUCAAUCGUGAACUUCATT against CLTCL1,inactive: 0.341
16,CACCCUGCAGGUUCCCAUATT against HSD17B14,inactive: 0.386
17,GCAGAGAUUUCCAAGAAAATT against GPR32,active: -1.2
18,GCAGGAUCAGAAGCCUAUUTT against NR3C1,inactive: -0.47
19,GGUAGUGAAUAACAAUGGATT against HACL1,inactive: -0.0664
20,GGAUGAGAAGAGAUCAGCATT against AKAP5,inactive: 0.0592
21,GCAGAGCGGAGUUCUUUAUTT against PHOX2A,inactive: 0.466
22,AGAUAGUUCUGGAACUGGATT against HES2,inactive: -0.186

row,Sequence,median seed-adjusted z-score
1,GGGAGGUAUUGGUUUCAUUTT against IMPDH1,inactive: 0.558
2,GAGAAAUGCUUGGAGUCCATT against FKBPL,active: -1.11
3,CAAACGGGCUCAUCAUAAUTT against MAX,inactive: 0.0949
4,GAAACAAACUGAUGAUAAUTT against TCEAL1,inactive: -0.263
5,CAAGAGUUAUGGUCUGGGATT against GCM1,inactive: 0.0197
6,GCACGGACUUACACCUAUUTT against NR5A2,inactive: -0.275
7,GAGUGUUCAGCAAACCGUATT against MED20,active: -1.66
8,GGACCCAAUCAACUCAAUATT against SS18,inactive: 0.34
9,GAACCUCAGUUGAGUAUUUTT against RPE,inactive: 0.616
10,CCUUCUAAGCAGACCCUUUTT against ZNF776,inactive: -0.394
11,GAUCUGUGAUGAGAACGGATT against VWF,inactive: 0.159
12,GCGAAUACCUGAUAGCACATT against RIMS2,inactive: 0.534
13,GCCUAUCGAUGGGUAGCAATT against NDUFA9,inactive: -0.325
14,GCGAAUUGCUAGAUGUUUATT against RAB11FIP4,inactive: 0.249
15,GCGAUUGUCUGGAUAAACUTT against EYA2,inactive: 0.111
16,CAGACACCUUCAUACCUUATT against BHMT,inactive: 0
17,CACUGAUCAUGACAACCAATT against POLS,inactive: -0.334
18,GCCUCAUGCUAGACAACAATT against MFHAS1,inactive: -0.267
19,CAUCUGGAAGGAACCCUUUTT against ALDH3B2,inactive: 0.171
20,GAUUGUCAAUGGGUGUAUUTT against AOF1,inactive: -0.211
21,UCACCAUGGUUUACACUGUTT against KCNJ5,inactive: 0.0644
22,GCUCGUAACUUCCUCGUUUTT against SMC1A,inactive: -0.362

row,Sequence,median seed-adjusted z-score
1,GUACCUUCCCUGAUCAUCATT against ZNF689,inactive: 0.448
2,AGCAUGUUCUUACUGCUCATT against NCR1,inactive: -0.26
3,GGUGCAUAGCUAUCCGUAUTT against IARS2,inactive: -0.404
4,CAAUGAUCAUGGACCGUUUTT against CPEB3,inactive: 0.086
5,GAUGAGACUUUGACUAUAATT against FGD6,inactive: 0.536
6,GCUUCGGCUUAUUAACCAATT against MAP2,inactive: 0.238
7,CCCUCUACCUCGUCCGAAUTT against SIRPA,inactive: -0.153
8,CCGUGGACUAUAUCCGAAATT against MITF,inactive: -0.249
9,CGAGGAGACCUGACAUGUUTT against ABCG4,inactive: -0.439
10,CGUCACCUUCCUUAAGAUUTT against ADORA1,inactive: 0.022
11,GGUCUUCUGCGAUCAGUUATT against S100A3,inactive: -0.176
12,GGAAGUUACUUACCGGGAATT against ATP5F1,inactive: -0.323
13,CGGUGCAUUUGUUCAAGGATT against SHOX,inactive: 0.316
14,UGCUGAUGACAGUCAUUUATT against CYP2S1,inactive: -0.196
15,CAACCAACAUUUACAUAUUTT against OPRK1,active: -1.08
16,CCGAAUGAAUGGUGAUAAATT against TUSC3,inactive: 0.138
17,GAAUGAAGCACGUCAAGAATT against SCO1,inactive: -0.251
18,UGCACACCUUGGACCAUGATT against SGCA,inactive: 0.144
19,CGUGGUCUUUGAGCAGUUUTT against ABP1,inactive: -0.241
20,GAACUAACUACAUAUGAAATT against OGFRL1,inactive: 0.0339
21,AUAUCCUAAUAGGAAUUAATT against ATP5J2,inactive: 0.00511
22,CCAAUGGUCUACUUGGUUATT against OLA1,inactive: -0.408

# Reformatted as tab-separated lines: part of the list above.
row	Sequence	median seed-adjusted z-score
3	GGUGCAUAGCUAUCCGUAUTT against IARS2	inactive: -0.404
4	CAAUGAUCAUGGACCGUUUTT against CPEB3	inactive: 0.086
5	GAUGAGACUUUGACUAUAATT against FGD6	inactive: 0.536
6	GCUUCGGCUUAUUAACCAATT against MAP2	inactive: 0.238
7	CCCUCUACCUCGUCCGAAUTT against SIRPA	inactive: -0.153
8	CCGUGGACUAUAUCCGAAATT against MITF	inactive: -0.249

# Exported bar-delimited: part of the list above
row | Sequence | median seed-adjusted z-score
7 | CCCUCUACCUCGUCCGAAUTT against SIRPA | inactive: -0.153
11 | GGUCUUCUGCGAUCAGUUATT against S100A3 | inactive: -0.176

# Further entries:

row,Sequence,median seed-adjusted z-score
1,CAGCUGGGCUGGACAUAUUTT against CLIC1,inactive: 0.288
2,AGCGGGUGGUGAAACUCUATT against PLXNA1,inactive: 0
3,GGACGGAUCUACAUCAUCATT against TSSK2,inactive: -0.064
4,GCACUAAUGUGAUCGUUGATT against MMP8,inactive: -0.781
5,GCCUCUAUUUGAUAAGCGATT against NAP1L1,inactive: 0.263
6,CAGGAUAUGUACUAAGCAATT against C1GALT1,inactive: -0.394
7,ACACUGCCUUGAUAACAUATT against HSPB6,inactive: 0.394
8,GGAAGUAUUAGGGUACAAATT against SOS2,inactive: 0.3
9,AGCUUGAAAUCUCAUGGAATT against SPINK5L2,inactive: 0.482
10,GCCGAGUACUGAACAUUGUTT against P2RY4,inactive: -0.389
11,CGCCUAUGUUUGGUGAUUATT against ALG6,inactive: 0.106
12,CCCUCAGACUAUGACCUUUTT against BST1,inactive: -0.28
13,GCAUCAAGCCGGGUGUGAUTT against PAX2,inactive: 0.341
14,GCAUUACUGUAUUAUACCATT against PIGW,inactive: -0.242
15,CCAGUGCUGCAUUUCAGUUTT against KRTAP5-6,inactive: 0.185
16,GCUUACCAAUGAAACUCGATT against USP46,inactive: -0.964
17,CGACAACAUAUGUUCCGGATT against TNFRSF11B,inactive: 0.582
18,GUGUCUACCUGAUCACCAUTT against FPR3,inactive: -0.605
19,UGAUUGUUUUCAAUGGGAATT against CANT1,inactive: 0
20,GGCAGUACGCGGAGAAGAATT against EEF1D,inactive: 0.421
21,CUCAUGUGAUUUUACGAUATT against AMFR,inactive: -0.15
22,GUGCAUGCAGGAGAAGUCATT against GATA2,inactive: 0.623

row,Sequence,median seed-adjusted z-score
1,CUAUGUCGUUGAAAACCAUTT against KCNE1,inactive: -0.347
2,GGAUUUGAUUACUUACUAATT against EEF2K,inactive: 0
3,GGAUAUGGAACUCACGUUATT against ITLN2,inactive: 0.00733
4,GGUGGAGGACCAAACAGAATT against MGAT4B,inactive: 0.0142
5,CCAGCCUUAUAACAGCUGATT against NR2E3,inactive: -0.184
6,AGAUGGAUGUGCCCAGCAATT against PCGF2,inactive: 0.187
7,CUCUCAUCGUCAUCCUUGATT against SLC6A17,inactive: -0.41
8,GCAUGAUUGUUUCAAGUCATT against TWIST2,inactive: 0.363
9,AGCAACUACUGGAAAUUUUTT against ST6GALNAC2,inactive: 0
10,CAGUGGAAUGAAUUCAGUUTT against CDC42SE2,inactive: 0.381
11,GGAGGACUCGUUAUCUGUATT against KLF12,inactive: -0.0892
12,GGAGGUCACAAAAUUAGCATT against AKR1C3,inactive: -0.00538
13,GCGACGAAGUGCUACGAAATT against ITGA2,inactive: 0.106
14,CUACGACUGUGACAACCCATT against GRIN2B,inactive: 0.0402
15,GGAUUCAGCUCGUUACCAUTT against TWF1,inactive: -0.171
16,CGAGACAAGACGCAGCUUUTT against LDLRAD2,inactive: -0.459
17,CAGCAUUCUUGUAAACGGATT against EPS15,inactive: -0.478
18,GCAGGGUUAGCAUAAAGGATT against MOBKL3,inactive: 0.575
19,CGAAGGGAAUUUCCACUAUTT against REN,inactive: -0.48
20,GCAGACAGGUCAAAUCUGATT against SNAI2,inactive: 0

# — PubChem BioAssay AID1347426 (Functional Genomics Laboratory (NCATS/FGL), 2020)
